Positions count from the first letter of the chain named. Results are given in words; binding and its absence hold for the method and conditions named. In cells and extracts the contact can be indirect. Binding can be weak; no strength is given. Where a sequence is shown, tags or fusion partners need not be part of it.
Experiments:
Flag-CNTNAP2-WT (human) = target: T1, Flag-CNTNAP2-WT (human) (UniProt Q9UHC6); assay: co-IP
T1 sequence: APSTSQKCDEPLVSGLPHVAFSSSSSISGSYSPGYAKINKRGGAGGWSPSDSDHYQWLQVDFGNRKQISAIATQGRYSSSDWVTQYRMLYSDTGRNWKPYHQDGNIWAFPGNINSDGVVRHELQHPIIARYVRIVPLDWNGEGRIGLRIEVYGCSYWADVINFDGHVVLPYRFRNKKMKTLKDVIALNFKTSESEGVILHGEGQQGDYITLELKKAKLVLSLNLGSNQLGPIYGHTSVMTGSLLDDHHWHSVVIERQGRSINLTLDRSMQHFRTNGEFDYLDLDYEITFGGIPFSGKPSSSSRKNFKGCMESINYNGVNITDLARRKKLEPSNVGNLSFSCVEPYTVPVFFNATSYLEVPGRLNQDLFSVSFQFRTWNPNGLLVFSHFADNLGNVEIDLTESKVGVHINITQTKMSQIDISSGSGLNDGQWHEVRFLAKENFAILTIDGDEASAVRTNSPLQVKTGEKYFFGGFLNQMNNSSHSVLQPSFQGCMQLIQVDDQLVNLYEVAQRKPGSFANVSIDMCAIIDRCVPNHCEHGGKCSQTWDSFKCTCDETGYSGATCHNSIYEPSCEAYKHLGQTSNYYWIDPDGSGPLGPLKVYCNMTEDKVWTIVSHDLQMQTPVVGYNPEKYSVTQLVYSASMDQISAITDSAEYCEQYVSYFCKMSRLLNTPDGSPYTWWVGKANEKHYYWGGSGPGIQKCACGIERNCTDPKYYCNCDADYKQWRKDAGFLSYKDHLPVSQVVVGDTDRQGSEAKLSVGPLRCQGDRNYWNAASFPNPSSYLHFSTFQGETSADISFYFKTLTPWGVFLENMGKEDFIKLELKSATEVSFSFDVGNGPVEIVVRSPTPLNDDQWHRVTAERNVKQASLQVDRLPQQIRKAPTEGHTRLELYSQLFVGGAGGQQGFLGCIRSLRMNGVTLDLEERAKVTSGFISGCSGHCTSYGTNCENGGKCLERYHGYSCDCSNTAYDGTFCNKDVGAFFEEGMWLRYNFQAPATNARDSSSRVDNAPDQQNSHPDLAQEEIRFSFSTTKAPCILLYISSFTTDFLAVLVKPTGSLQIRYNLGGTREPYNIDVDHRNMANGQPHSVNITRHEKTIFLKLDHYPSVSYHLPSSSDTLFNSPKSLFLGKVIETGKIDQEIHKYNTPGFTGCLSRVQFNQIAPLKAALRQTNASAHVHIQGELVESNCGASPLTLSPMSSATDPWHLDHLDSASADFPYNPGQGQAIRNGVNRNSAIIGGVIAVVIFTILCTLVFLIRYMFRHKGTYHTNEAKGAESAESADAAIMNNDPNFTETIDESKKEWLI

[1] = target: T2, Flag-CNTNAP2 T1278I (human) (UniProt Q9UHC6); assay: co-IP
T2 sequence: T1 sequence with T1251I

binding (Flag-CNTNAP2-WT (human)): binds
binding [1]: binds
Substance: HA-MMP9 (from UniProt P14780) (enzyme)

Reference: paper doi:10.1101/2024.11.04.621898
